In publication PMC2661907, “The Proteasome Is a Molecular Target of Environmental Toxic Organotins” (Environmental Health Perspectives, 2008):
These are yes or no findings as the source states them, for the method shown. Binding seen in cells or lysates may run through a third protein. Some entries that bind do so weakly or less than the wild type.

Amino acid sequences for entries named in this document (tags omitted). Residues count along the entry.
UniProt P25787: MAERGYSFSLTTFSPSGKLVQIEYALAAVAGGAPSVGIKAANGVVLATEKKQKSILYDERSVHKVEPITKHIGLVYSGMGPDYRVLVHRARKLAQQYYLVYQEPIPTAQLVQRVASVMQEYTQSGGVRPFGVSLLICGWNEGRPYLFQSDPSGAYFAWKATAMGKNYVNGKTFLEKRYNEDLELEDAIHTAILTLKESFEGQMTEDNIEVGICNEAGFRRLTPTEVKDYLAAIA
UniProt P28074, residues 60-263: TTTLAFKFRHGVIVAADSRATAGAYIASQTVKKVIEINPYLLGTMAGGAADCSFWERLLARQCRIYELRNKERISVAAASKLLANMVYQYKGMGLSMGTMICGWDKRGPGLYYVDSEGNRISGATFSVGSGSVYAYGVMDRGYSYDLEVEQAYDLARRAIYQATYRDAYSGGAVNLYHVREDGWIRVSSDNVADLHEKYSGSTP

Biological target: 20S proteasome subunit α2 (HC3) (human (endogenous in MDA-MB-231)) (UniProt P25787)
Experiment: co-IP; agarose beads with mouse monoclonal antibody to 20S proteasome subunit α2 incubated with whole-cell extracts (~800 μg protein) of MDA-MB-231 cells treated with 10 μmol/L TPT or methanol for 2 hr; overnight at 4°C in Tris-HCl 25 mmol/L, pH 7.5; three washes; Western blot with proteasome β5 antibody

Question: With “20S proteasome subunit β5 (from UniProt P28074 60-263)” as the substance, how does the binding read?
Answer: Its binding is “binds”.
